# Results: US7371414B2, “Therapeutic and diagnostic methods dependent on CYP2A enzymes” (Nicogen, Inc., priority 1997, dated 2008)
# Molecular target: T1, CYP2A6 (Homo sapiens, UniProt P11509)
# T1 sequence (P11509 1-494): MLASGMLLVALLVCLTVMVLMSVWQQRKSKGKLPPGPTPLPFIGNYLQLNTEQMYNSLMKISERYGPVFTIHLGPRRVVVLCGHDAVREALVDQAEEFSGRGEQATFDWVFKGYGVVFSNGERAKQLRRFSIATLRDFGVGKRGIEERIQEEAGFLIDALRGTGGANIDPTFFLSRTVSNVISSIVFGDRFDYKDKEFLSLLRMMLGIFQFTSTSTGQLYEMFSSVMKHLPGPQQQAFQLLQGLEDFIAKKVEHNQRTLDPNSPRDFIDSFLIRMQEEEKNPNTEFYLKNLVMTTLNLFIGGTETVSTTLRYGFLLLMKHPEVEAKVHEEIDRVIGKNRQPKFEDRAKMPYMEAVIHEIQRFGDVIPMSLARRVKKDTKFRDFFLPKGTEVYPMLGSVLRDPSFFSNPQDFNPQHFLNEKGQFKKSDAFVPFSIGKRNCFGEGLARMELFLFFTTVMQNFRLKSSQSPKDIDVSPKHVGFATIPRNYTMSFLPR
# Assay: Inhibition of nicotine metabolism to cotinine in test livers
# Type: biochemical
# Parameters: from tissue; host or cells: human smokers in vivo (hepatic CYP2A6)
# Conditions: CYP2B6 inhibitor added to coumarin
smiles,measurement,value
Cc1ccccc1C(OCCN(C)C)c1ccccc1 (stereo not shown) [orphenadrine],effect of addition on the inhibition of nicotine metabolism to cotinine by coumarin,enhanced the inhibition
